Assay results: paper PMC12516175
These are yes or no findings as the source states them, for the method shown. Binding seen in cells or lysates may run through a third protein.

Biological target: SLC7A11 (rat (endogenous in RIN5mF))
Experiment: co-IP; lysates of dRib-treated RIN5mF cells incubated overnight with Protein A/G magnetic bead-antibody mixtures; eluates analysed by western blotting

B1: TRIM26 (enzyme, UniProt P62603 1-542)
chain: MAVSAPLRSLEEEVTCSICLDYLRDPVTIDCGHVFCRSCTSDIRPISGNRPVCPLCKKPFKKENIRPVWQLASLVENIERLKVDNGKQPGELAREPQDMKLCERHQEKLHYYCEDDGKLLCVMCRESREHRPHTAVLVEKAALPHREKILNHLNTLRRDRDKIQGFQAKGEADILAALTKLQEQRQYIVAEFKQGHQFLKKREQHLLDQLATLEQLLTEGREKFKTRGVSELDRLTLVISELEGKARQPAAELMQLSDRLSCLSLRYPRKKFWIGKAIPHMVKRKAGEFSDKLLSLQRGLRQFQGKLLRDLEYKTVSVTLDPQSASGYLQLSEDWKCITYTGQYQSDCLLPQQFDCEPGVLGSKGFTWGKVYWEVELEREGWSEDEEEGEEEEEGEEEEEDEEPGYGDRYEDWETDEEDESLGEEEEEEEEEEEEVQESCMVGVAKDSVKRKGNLSLRPEDGVWALRLSPSGIWANTSPEAQLFPVLRPRRVGIALDYEGGTVTFTNAESQELIYTFTTTFTRRLVPFLWLKWPEARLLLRP
binding: no binding
